Measured values published in PMC8097444 (Antimicrobial Agents and Chemotherapy, 2021).

Biological target: SARS-CoV-2 PL^pro (Severe acute respiratory syndrome coronavirus 2, UniProt P0DTD1)
Assay: SARS-CoV-2 PLpro fluorogenic inhibition assay: screening at 10 μM and IC50
Assay type: biochemical

Question: Which IC50 does the source give for `CNCCCC12CCC(c3ccccc31)c1ccccc12` [maprotiline] here?
Answer: The IC50 was 9.7 ± 0.3 µM.
